Results as given in paper PMC3794601.
Read-outs that look alike come from different tables or passages of the source. No constants are given. Whether binding was seen depends on the method and setting. In cells and extracts the contact can be indirect. Some results given as binding are weak or reduced against the parent protein; the word gives no strength. For some of these results: Sequences can lack the tags named with a protein.

Amino acid sequences for entries named in this document (tags omitted). A change or cut given only in a name is not applied to a line headed by its entry.
UniProt P10275: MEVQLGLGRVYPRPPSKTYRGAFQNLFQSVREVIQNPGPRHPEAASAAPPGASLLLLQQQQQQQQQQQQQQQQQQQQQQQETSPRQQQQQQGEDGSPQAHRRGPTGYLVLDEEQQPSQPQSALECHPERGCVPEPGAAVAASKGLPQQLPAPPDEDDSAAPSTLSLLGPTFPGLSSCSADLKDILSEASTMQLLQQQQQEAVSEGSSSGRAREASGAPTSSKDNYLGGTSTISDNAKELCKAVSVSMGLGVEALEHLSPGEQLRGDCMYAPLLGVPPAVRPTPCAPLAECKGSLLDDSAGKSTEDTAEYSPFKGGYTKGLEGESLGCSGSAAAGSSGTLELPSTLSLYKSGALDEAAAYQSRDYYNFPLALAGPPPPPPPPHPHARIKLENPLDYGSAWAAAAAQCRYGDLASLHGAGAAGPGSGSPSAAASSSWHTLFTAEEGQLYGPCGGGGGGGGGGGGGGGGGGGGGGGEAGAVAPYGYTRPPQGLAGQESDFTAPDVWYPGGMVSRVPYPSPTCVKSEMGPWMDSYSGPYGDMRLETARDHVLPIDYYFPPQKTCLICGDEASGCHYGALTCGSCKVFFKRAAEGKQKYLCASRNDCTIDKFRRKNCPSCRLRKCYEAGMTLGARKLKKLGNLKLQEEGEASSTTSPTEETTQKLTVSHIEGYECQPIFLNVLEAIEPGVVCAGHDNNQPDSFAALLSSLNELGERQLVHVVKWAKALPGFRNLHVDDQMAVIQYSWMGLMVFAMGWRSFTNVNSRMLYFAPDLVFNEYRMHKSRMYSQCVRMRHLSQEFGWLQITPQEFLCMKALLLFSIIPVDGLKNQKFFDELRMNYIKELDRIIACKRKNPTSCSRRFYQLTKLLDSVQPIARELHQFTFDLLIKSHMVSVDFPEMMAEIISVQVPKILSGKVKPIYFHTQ
UniProt P23769: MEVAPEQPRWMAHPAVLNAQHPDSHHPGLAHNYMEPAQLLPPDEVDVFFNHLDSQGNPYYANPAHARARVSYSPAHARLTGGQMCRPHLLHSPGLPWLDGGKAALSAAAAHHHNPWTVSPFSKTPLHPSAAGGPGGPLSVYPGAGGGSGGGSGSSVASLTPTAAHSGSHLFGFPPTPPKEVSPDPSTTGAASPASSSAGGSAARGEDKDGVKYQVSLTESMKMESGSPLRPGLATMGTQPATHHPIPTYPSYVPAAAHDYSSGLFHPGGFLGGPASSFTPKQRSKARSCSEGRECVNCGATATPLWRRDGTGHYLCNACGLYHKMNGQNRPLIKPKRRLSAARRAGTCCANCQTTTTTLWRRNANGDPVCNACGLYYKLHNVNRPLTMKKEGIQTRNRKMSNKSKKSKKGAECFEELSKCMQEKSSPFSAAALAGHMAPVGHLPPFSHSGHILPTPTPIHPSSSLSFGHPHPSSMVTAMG

Legend:
[1] = biological target: T1, N-terminal domain of CCAR1 (aa 1-249) (UniProt Q8IX12); test: pull-down; GST pull-down mapping of CCAR1 domains with AR and GATA2 (Supplementary Figure S13); details not shown
T1 sequence: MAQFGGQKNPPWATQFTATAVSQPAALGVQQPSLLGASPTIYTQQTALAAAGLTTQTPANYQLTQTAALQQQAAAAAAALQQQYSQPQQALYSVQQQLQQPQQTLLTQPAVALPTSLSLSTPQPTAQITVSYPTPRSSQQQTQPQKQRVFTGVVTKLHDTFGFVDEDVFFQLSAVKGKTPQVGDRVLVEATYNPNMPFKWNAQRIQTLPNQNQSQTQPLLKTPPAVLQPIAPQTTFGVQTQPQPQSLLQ

[2] = biological target: T2, FLAG-tagged CCAR1 expressed in 293T cells (UniProt Q8IX12); test: co-IP; extracts of transiently transfected 293T cells immunoprecipitated with anti-FLAG antibody or normal IgG; immunoblot; in Figure 5C with or without co-expressed CCAR1
T2 sequence: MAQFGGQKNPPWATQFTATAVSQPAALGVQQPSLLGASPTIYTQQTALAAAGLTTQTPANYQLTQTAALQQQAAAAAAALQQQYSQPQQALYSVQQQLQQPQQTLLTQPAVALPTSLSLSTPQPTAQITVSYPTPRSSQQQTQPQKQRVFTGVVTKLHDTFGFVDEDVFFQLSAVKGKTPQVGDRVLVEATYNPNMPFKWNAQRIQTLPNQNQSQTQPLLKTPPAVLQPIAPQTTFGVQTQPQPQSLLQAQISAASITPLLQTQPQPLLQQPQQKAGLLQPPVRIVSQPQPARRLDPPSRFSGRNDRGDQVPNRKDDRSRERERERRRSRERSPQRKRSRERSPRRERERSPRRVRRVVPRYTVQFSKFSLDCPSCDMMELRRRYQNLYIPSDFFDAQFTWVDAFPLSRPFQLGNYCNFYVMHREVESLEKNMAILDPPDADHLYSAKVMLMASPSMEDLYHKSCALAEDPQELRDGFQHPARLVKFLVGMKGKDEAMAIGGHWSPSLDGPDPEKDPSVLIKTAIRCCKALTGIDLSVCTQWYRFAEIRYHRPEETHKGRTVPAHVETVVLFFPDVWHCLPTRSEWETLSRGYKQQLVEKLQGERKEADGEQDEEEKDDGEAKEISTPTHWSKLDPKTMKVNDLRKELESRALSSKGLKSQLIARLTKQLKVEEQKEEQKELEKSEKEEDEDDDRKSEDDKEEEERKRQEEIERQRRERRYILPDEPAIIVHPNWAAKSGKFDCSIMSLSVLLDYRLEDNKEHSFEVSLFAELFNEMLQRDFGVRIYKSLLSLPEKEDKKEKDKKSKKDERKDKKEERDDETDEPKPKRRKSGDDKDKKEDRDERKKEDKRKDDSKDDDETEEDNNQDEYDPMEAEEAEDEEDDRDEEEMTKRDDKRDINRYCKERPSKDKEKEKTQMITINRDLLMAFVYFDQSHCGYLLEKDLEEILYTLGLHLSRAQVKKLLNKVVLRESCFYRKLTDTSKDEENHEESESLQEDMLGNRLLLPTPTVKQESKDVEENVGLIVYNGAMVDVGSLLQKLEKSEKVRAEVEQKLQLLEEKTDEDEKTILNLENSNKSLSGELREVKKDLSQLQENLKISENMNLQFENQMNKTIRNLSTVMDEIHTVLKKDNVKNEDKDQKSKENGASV

[3] = biological target: FLAG-tagged AR expressed in 293T cells (UniProt P10275); test: as above
Recombinant GST-CCAR1 = biological target: T3, Recombinant GST-CCAR1 (UniProt Q8IX12); test: pull-down; in vitro translated HA-tagged GATA2 incubated with recombinant GST-CCAR1; bound proteins detected by immunoblot with anti-HA; only the target purified
T3 sequence: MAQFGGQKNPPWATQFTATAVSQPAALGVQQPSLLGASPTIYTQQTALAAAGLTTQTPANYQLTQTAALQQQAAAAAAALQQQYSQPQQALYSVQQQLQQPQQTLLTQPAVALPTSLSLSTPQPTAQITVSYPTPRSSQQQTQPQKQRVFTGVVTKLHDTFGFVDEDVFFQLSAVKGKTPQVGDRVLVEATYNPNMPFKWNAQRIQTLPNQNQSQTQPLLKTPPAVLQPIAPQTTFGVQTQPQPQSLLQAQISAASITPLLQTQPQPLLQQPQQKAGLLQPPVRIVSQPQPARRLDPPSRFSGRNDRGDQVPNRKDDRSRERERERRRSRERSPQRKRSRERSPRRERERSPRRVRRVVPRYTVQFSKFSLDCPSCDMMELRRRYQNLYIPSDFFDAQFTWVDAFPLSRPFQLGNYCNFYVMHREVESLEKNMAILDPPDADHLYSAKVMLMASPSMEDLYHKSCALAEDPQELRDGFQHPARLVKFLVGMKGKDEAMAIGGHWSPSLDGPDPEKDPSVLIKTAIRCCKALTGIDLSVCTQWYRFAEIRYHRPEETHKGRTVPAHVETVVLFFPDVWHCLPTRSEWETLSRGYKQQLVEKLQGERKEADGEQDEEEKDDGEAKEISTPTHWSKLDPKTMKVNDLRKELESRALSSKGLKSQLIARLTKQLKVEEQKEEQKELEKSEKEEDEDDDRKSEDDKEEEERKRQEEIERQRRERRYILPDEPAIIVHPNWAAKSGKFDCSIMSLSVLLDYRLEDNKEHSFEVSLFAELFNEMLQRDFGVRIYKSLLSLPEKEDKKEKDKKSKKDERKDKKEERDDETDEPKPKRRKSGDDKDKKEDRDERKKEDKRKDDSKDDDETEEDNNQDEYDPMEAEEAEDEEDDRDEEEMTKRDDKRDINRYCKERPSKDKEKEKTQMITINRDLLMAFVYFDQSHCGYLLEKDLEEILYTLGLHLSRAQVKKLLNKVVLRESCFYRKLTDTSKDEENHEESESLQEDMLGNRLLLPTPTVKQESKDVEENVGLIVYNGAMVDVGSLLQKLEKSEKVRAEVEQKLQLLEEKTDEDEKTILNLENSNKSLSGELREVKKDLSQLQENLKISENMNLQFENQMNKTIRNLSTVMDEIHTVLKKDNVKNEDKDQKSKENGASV

[4] = biological target: T4, Central domain of CCAR1 (aa 203-660) (UniProt Q8IX12); test: pull-down; GST pull-down mapping of CCAR1 domains with AR and GATA2 (Supplementary Figure S13); details not shown
T4 sequence: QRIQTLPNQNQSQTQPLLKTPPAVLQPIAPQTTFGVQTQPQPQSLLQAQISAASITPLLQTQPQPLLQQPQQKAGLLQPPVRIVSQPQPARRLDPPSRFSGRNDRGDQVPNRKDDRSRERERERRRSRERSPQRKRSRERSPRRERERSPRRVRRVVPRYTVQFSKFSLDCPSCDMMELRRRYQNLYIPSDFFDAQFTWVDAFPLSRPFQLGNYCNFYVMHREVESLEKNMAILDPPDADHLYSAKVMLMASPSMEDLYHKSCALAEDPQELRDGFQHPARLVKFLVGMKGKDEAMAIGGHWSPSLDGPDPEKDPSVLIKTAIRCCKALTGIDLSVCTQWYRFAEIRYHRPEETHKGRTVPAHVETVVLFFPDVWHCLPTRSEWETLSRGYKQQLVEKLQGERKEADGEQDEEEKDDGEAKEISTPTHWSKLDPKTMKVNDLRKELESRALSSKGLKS

[5] = biological target: FLAG-tagged AR expressed in 293T cells (UniProt P10275); test: co-IP; extracts of transiently transfected 293T cells immunoprecipitated with anti-FLAG antibody or normal IgG; immunoblot; in Figure 5C with or without co-expressed CCAR1; remark: listed apart in the source
[6] = biological target: AR as used in the in vitro GST pull-down assays with CCAR1 (Supplementary Figures S1B and S13) (UniProt P10275); test: pull-down; in vitro GST pull-down of CCAR1 and AR or AR regions, with and without hormone (Supplementary Figure S1B-E); which partner carried GST not shown

## AR as used in the in vitro GST pull-down assays with CCAR1 (Supplementary Figures S1B and S13) (from UniProt P10275 1-920)
[1]
  binding: binds

## HA-tagged GATA2 expressed in 293T cells (from UniProt P23769 1-480)
[2]
  binding: binds
[3]
  binding: binds

## In vitro translated HA-tagged GATA2 (from UniProt P23769 1-480)
Recombinant GST-CCAR1
  binding: binds
[4]
  binding: binds

B1: HA-tagged CCAR1 expressed in 293T cells (protein, UniProt Q8IX12 1-1150)
chain: MAQFGGQKNPPWATQFTATAVSQPAALGVQQPSLLGASPTIYTQQTALAAAGLTTQTPANYQLTQTAALQQQAAAAAAALQQQYSQPQQALYSVQQQLQQPQQTLLTQPAVALPTSLSLSTPQPTAQITVSYPTPRSSQQQTQPQKQRVFTGVVTKLHDTFGFVDEDVFFQLSAVKGKTPQVGDRVLVEATYNPNMPFKWNAQRIQTLPNQNQSQTQPLLKTPPAVLQPIAPQTTFGVQTQPQPQSLLQAQISAASITPLLQTQPQPLLQQPQQKAGLLQPPVRIVSQPQPARRLDPPSRFSGRNDRGDQVPNRKDDRSRERERERRRSRERSPQRKRSRERSPRRERERSPRRVRRVVPRYTVQFSKFSLDCPSCDMMELRRRYQNLYIPSDFFDAQFTWVDAFPLSRPFQLGNYCNFYVMHREVESLEKNMAILDPPDADHLYSAKVMLMASPSMEDLYHKSCALAEDPQELRDGFQHPARLVKFLVGMKGKDEAMAIGGHWSPSLDGPDPEKDPSVLIKTAIRCCKALTGIDLSVCTQWYRFAEIRYHRPEETHKGRTVPAHVETVVLFFPDVWHCLPTRSEWETLSRGYKQQLVEKLQGERKEADGEQDEEEKDDGEAKEISTPTHWSKLDPKTMKVNDLRKELESRALSSKGLKSQLIARLTKQLKVEEQKEEQKELEKSEKEEDEDDDRKSEDDKEEEERKRQEEIERQRRERRYILPDEPAIIVHPNWAAKSGKFDCSIMSLSVLLDYRLEDNKEHSFEVSLFAELFNEMLQRDFGVRIYKSLLSLPEKEDKKEKDKKSKKDERKDKKEERDDETDEPKPKRRKSGDDKDKKEDRDERKKEDKRKDDSKDDDETEEDNNQDEYDPMEAEEAEDEEDDRDEEEMTKRDDKRDINRYCKERPSKDKEKEKTQMITINRDLLMAFVYFDQSHCGYLLEKDLEEILYTLGLHLSRAQVKKLLNKVVLRESCFYRKLTDTSKDEENHEESESLQEDMLGNRLLLPTPTVKQESKDVEENVGLIVYNGAMVDVGSLLQKLEKSEKVRAEVEQKLQLLEEKTDEDEKTILNLENSNKSLSGELREVKKDLSQLQENLKISENMNLQFENQMNKTIRNLSTVMDEIHTVLKKDNVKNEDKDQKSKENGASV
[5]
  binding: binds

B2: CCAR1 as used in the in vitro GST pull-down assays with AR (Supplementary Figure S1B-E) (protein, UniProt Q8IX12 1-1150)
chain: MAQFGGQKNPPWATQFTATAVSQPAALGVQQPSLLGASPTIYTQQTALAAAGLTTQTPANYQLTQTAALQQQAAAAAAALQQQYSQPQQALYSVQQQLQQPQQTLLTQPAVALPTSLSLSTPQPTAQITVSYPTPRSSQQQTQPQKQRVFTGVVTKLHDTFGFVDEDVFFQLSAVKGKTPQVGDRVLVEATYNPNMPFKWNAQRIQTLPNQNQSQTQPLLKTPPAVLQPIAPQTTFGVQTQPQPQSLLQAQISAASITPLLQTQPQPLLQQPQQKAGLLQPPVRIVSQPQPARRLDPPSRFSGRNDRGDQVPNRKDDRSRERERERRRSRERSPQRKRSRERSPRRERERSPRRVRRVVPRYTVQFSKFSLDCPSCDMMELRRRYQNLYIPSDFFDAQFTWVDAFPLSRPFQLGNYCNFYVMHREVESLEKNMAILDPPDADHLYSAKVMLMASPSMEDLYHKSCALAEDPQELRDGFQHPARLVKFLVGMKGKDEAMAIGGHWSPSLDGPDPEKDPSVLIKTAIRCCKALTGIDLSVCTQWYRFAEIRYHRPEETHKGRTVPAHVETVVLFFPDVWHCLPTRSEWETLSRGYKQQLVEKLQGERKEADGEQDEEEKDDGEAKEISTPTHWSKLDPKTMKVNDLRKELESRALSSKGLKSQLIARLTKQLKVEEQKEEQKELEKSEKEEDEDDDRKSEDDKEEEERKRQEEIERQRRERRYILPDEPAIIVHPNWAAKSGKFDCSIMSLSVLLDYRLEDNKEHSFEVSLFAELFNEMLQRDFGVRIYKSLLSLPEKEDKKEKDKKSKKDERKDKKEERDDETDEPKPKRRKSGDDKDKKEDRDERKKEDKRKDDSKDDDETEEDNNQDEYDPMEAEEAEDEEDDRDEEEMTKRDDKRDINRYCKERPSKDKEKEKTQMITINRDLLMAFVYFDQSHCGYLLEKDLEEILYTLGLHLSRAQVKKLLNKVVLRESCFYRKLTDTSKDEENHEESESLQEDMLGNRLLLPTPTVKQESKDVEENVGLIVYNGAMVDVGSLLQKLEKSEKVRAEVEQKLQLLEEKTDEDEKTILNLENSNKSLSGELREVKKDLSQLQENLKISENMNLQFENQMNKTIRNLSTVMDEIHTVLKKDNVKNEDKDQKSKENGASV
[6]
  binding: binds
